Patent publication US8148538B2, “N-alkyl-heterocyclyl carboxamide derivatives” (Bayer Cropscience AG, priority 2005, dated 2012)
Some of these results come from one statement about several compounds together.

Columns and labels:
Alternaria brassicae = assay: In vivo test on Alternaria brassicae (leaf spot of crucifers), preventive spray on radish plants; conditions: dose of 500 ppm, grading 6 to 7 days after contamination vs control plants
Experimental: The active ingredient tested is prepared by homogenisation in DMSO (5% of the final volume), acetone (10% of the final volume) and tween 80 10% (5 μl/mg active ingredient). Radish plants (Pernot variety) in starter cups, sown on a 50/50 peat soil-pozzolana substrate and grown at 18-20° C., are treated at the cotyledon stage by spraying with the aqueous suspension described above. Plants, used as controls, are treated with an aqueous solution not containing the active material. After 24 hours, the plants are contaminated by spraying them with an aqueous suspension of Alternaria brassicae spores (40,000 spores per cm^3). The spores are collected from a 12 to 13 days-old culture. The contaminated radish plants are incubated for 6-7 days at about 18° C., under a humid atmosphere. Grading is carried out 6 to 7 days after the contamination, in comparison with the control plants. Under these conditions, good (at least 70%) or total protection is observed at a dose of 500 ppm with the following compounds: 1-2, 2-2, 2-5, 3-2, 3-5, 4-3, 4-4, 4-5, 4-6, 5-4, 5-5, 5-7, 6-1, 7-1, 7-3, 7-4, 7-6, 9-3, 10-3, 10-4, 5, 10-6, 10-8, 11-1, 11-2, 12-2, 13-1, 13-3, 13-5, 15-2, 15-3, 16-4, 19-1, 20-1, 21-1, 21-2, 22-2, 22-3, 23-1, 24-1, 24-2, 25-1, 25-3, 26-2, 27-1, 28-2, 30-1, 30-2, 31-1, 32-1 and 33-2.

Botrytis cinerea = assay: In vivo test on Botrytis cinerea (cucumber grey mould), preventive spray on cucumber plants; conditions: dose of 500 ppm, grading 5/7 days after contamination vs control plants
Experimental: (§1) The active ingredient tested is prepared by homogenisation in DMSO (5% of the final volume), acetone (10% of the final volume) and tween 80 10% (5 μl/mg active ingredient).
(§2) Cucumber plants (Marketer variety) in starter cups, sown on a 50/50 peat soil-pozzolana substrate and grown at 18-20° C., are treated at the cotyledon Z11 stage by spraying with the aqueous suspension described above. Plants, used as controls, are treated with an aqueous solution not containing the active material.
After 24 hours, the plants are contaminated by depositing drops of an aqueous suspension of Botrytis cinerea spores (150,000 spores per ml) on upper surface of the leaves. The spores are collected from a 15-day-old culture and are suspended in a nutrient solution composed of: • 20 g/L of gelatin • 50 g/L of cane sugar • 2 g/L of NH4NO3 • 1 g/L of KH2PO4
The contaminated cucumber plants are settled for 5/7 days in a climatic room at 15-11° C. (day/night) and at 80% relative humidity.

Pyrenophora teres = assay: In vivo test on Pyrenophora teres (barley net blotch), preventive spray on barley plants; conditions: grading 12 days after contamination vs control plants
Experimental: as §1
as §2, with “Barley” for “Cucumber”, “(Express” for “(Marketer”, “12°” for “18-20°”, “1-leaf” for “cotyledon Z11”, “stage (10 cm tall)” for “stage”
After 24 hours, the plants are contaminated by spraying them with an aqueous suspension of Pyrenophora teres spores (12,000 spores per ml). The spores are collected from a 12-day-old culture. The contaminated barley plants are incubated for 24 hours at about 20° C. and at 100% relative humidity, and then for 12 days at 80% relative humidity.

Sphaerotheca fuliginea = assay: In vivo test on Sphaerotheca fuliginea (powdery mildew), preventive spray on gherkin plants; conditions: dose of 500 ppm, grading 21 days after contamination vs control plants
Experimental: as §1
as §2, with “Gherkin” for “Cucumber”, “(Vert petit de Paris” for “(Marketer”, “20° C./23°” for “18-20°”, “at” for “at the”
After 24 hours, the plants are contaminated by spraying them with an aqueous suspension of Sphaerotheca fuliginea spores (100 000 spores per ml). The spores are collected from a contaminated plants. The contaminated gerkhin plants are incubated at about 20° C./25° C. and at 60/70% relative humidity.

Compound | good (at least 70%) or total protection (Alternaria brassicae) | good (at least 70%) or total protection (Botrytis cinerea) | good (at least 70%) or total protection (Pyrenophora teres; dose of 500 ppm) | further results
CC(C)CCCC(C)NC(=O)c1c(I)ccn1C (stereo not drawn) [Compound 1-2] | at least 70% |  |  | 
CC(C)CCCC(C)NC(=O)c1cn(C)cc1C(F)(F)F (stereo not drawn) [Compound 2-2] | at least 70% | at least 70% | at least 70% | 
CC(CC(C)N(C(=O)c1cn(C)cc1C(F)(F)F)C1CC1)C[Si](C)(C)C (stereo not drawn) [Compound 2-4] |  |  | at least 70% | good (at least 70%) or total protection (% of efficacy) (Sphaerotheca fuliginea): at least 70%
CC(C[Si](C)(C)C)C(C)C(C)NC(=O)c1cn(C)cc1C(F)(F)F (stereo not drawn) [Compound 2-5] | at least 70% |  | at least 70% | good (at least 70%) or total protection (% of efficacy) (Sphaerotheca fuliginea): at least 70%
CC(C)CCC(C)NC(=O)c1ccsc1I (stereo not drawn) [Compound 3-1] |  |  | at least 70% | good (at least 70%) or total protection (% of efficacy) (Sphaerotheca fuliginea): at least 70%
CC(C)CCCC(C)NC(=O)c1ccsc1I (stereo not drawn) [Compound 3-2] | at least 70% | at least 70% | at least 70% | 
CC(CC(C)NC(=O)c1ccsc1I)C[Si](C)(C)C (stereo not drawn) [Compound 3-5] | at least 70% |  | at least 70% | good (at least 70%) or total protection (% of efficacy) (Sphaerotheca fuliginea): at least 70%
CC(CC(C)NC(=O)c1cn(C)nc1C(F)(F)F)CC(C)(C)C (stereo not drawn) [Compound 4-4] | at least 70% | at least 70% |  | good (at least 70%) or total protection (Pyrenophora teres; dose of 500 g/ha): at least 70%
CC(C[Si](C)(C)C)C(C)C(C)NC(=O)c1cn(C)nc1C(F)(F)F (stereo not drawn) [Compound 4-6] | at least 70% |  | at least 70% | good (at least 70%) or total protection (% of efficacy) (Sphaerotheca fuliginea): at least 70%
CC(C)CCCC(C)(C)NC(=O)c1cn(C)nc1C(F)(F)F [Compound 4-7] |  | at least 70% |  | 
CC(CC(C)N(C(=O)c1cn(C)nc1C(F)(F)F)C1CC1)C[Si](C)(C)C (stereo not drawn) [Compound 4-8] |  |  | at least 70% | good (at least 70%) or total protection (% of efficacy) (Sphaerotheca fuliginea): at least 70%
CC(CC(C)NC(=O)c1cn(C)nc1C(F)(F)F)CC(C)(C)C (stereo not drawn) [Compound 4-11] |  |  |  | good (at least 70%) or total protection (% of efficacy) (Sphaerotheca fuliginea): at least 70%
CC(CC(C)NC(=O)c1cn(C)nc1C(F)(F)F)CC(C)(C)C (stereo not drawn) [Compound 4-12] |  |  | at least 70% | 
CC(F)c1nn(C)cc1C(=O)NC(C)C(C)C(C)C[Si](C)(C)C (stereo not drawn) [Compound 6-1] | at least 70% |  |  | 
Cc1nn(C)c(F)c1C(=O)NC(C)CCC(C)C (stereo not drawn) [Compound 7-1] | at least 70% | at least 70% | at least 70% | 
COc1nn(C)cc1C(=O)N(C(C)CC(C)C[Si](C)(C)C)C1CC1 (stereo not drawn) [Compound 8-4] |  |  | at least 70% | good (at least 70%) or total protection (% of efficacy) (Sphaerotheca fuliginea): at least 70%
Cc1nc(C(F)(F)F)c(C(=O)NC(C)C(C)C(C)C[Si](C)(C)C)s1 (stereo not drawn) [Compound 9-4] |  |  | at least 70% | 
Cc1nc(C(F)F)c(C(=O)N(C(C)CC(C)C[Si](C)(C)C)C2CC2)s1 (stereo not drawn) [Compound 10-8] | at least 70% |  | at least 70% | 
CC(C)CCC(C)NC(=O)c1sccc1Br (stereo not drawn) [Compound 11-1] | at least 70% |  |  | 
CC(C)CCCC(C)NC(=O)c1sccc1Br (stereo not drawn) [Compound 11-2] | at least 70% | at least 70% |  | 
CC(CC(C)NC(=O)c1sccc1Br)CC(C)(C)C (stereo not drawn) [Compound 11-3] |  |  |  | good (at least 70%) or total protection (Pyrenophora teres; dose of 330 ppm): at least 70%

Compound | good (at least 70%) or total protection (Alternaria brassicae) | good (at least 70%) or total protection (Botrytis cinerea) | good (at least 70%) or total protection (Pyrenophora teres; dose of 500 ppm) | further results
CC(C[Si](C)(C)C)C(C)C(C)NC(=O)c1sccc1Br (stereo not drawn) [Compound 11-5] |  |  | at least 70% | 
CC(C)CCCC(C)NC(=O)c1sccc1I (stereo not drawn) [Compound 12-2] | at least 70% | at least 70% | at least 70% | 
Cc1ccsc1C(=O)NC(C)CCC(C)C (stereo not drawn) [Compound 13-1] | at least 70% |  |  | 
Cc1ccsc1C(=O)NC(C)CCCC(C)C (stereo not drawn) [Compound 13-2] |  | at least 70% |  | 
Cc1ccsc1C(=O)NC(C)C(C)C(C)C[Si](C)(C)C (stereo not drawn) [Compound 13-3] | at least 70% |  |  | good (at least 70%) or total protection (% of efficacy) (Sphaerotheca fuliginea): at least 70%
Cc1cc(C(=O)NC(C)C(C)C(C)C[Si](C)(C)C)c(C(F)(F)F)o1 (stereo not drawn) [Compound 14-4] |  |  | at least 70% | good (at least 70%) or total protection (% of efficacy) (Sphaerotheca fuliginea): at least 70%
CC(C)CCC(C)NC(=O)c1ccoc1I (stereo not drawn) [Compound 15-1] |  | at least 70% |  | 
CC(C)CCCC(C)NC(=O)c1ccoc1I (stereo not drawn) [Compound 15-2] | at least 70% | at least 70% | at least 70% | 
CC(C[Si](C)(C)C)C(C)C(C)NC(=O)c1ccoc1I (stereo not drawn) [Compound 15-3] | at least 70% |  |  | good (at least 70%) or total protection (% of efficacy) (Sphaerotheca fuliginea): at least 70%
Cc1cc(C(=O)NC(C)C(C)C(C)C[Si](C)(C)C)c(C)o1 (stereo not drawn) [Compound 16-4] | at least 70% |  | at least 70% | 
Cc1occc1C(=O)NC(C)C(C)C(C)C[Si](C)(C)C (stereo not drawn) [Compound 17-5] |  |  | at least 70% | 
CC(CC1CCCCC1)NC(=O)c1cn(C)cc1C(F)(F)F (stereo not drawn) [Compound 19-1] | at least 70% | at least 70% | at least 70% | 
CC(CC1CCCCC1)NC(=O)c1ccsc1I (stereo not drawn) [Compound 20-1] | at least 70% | at least 70% |  | 
CC(CC1CCCCC1)NC(=O)c1cn(C)nc1C(F)F (stereo not drawn) [Compound 22-1] |  |  |  | good (at least 70%) or total protection (Pyrenophora teres; dose of 500 g/ha): at least 70%; good (at least 70%) or total protection (% of efficacy) (Sphaerotheca fuliginea): at least 70%
CC(CC1CCCCC1)NC(=O)c1cn(C)nc1C(C)F (stereo not drawn) [Compound 23-1] | at least 70% |  |  | 
CC(CC1CCCCC1)NC(=O)c1sccc1Br (stereo not drawn) [Compound 27-1] | at least 70% | at least 70% | at least 70% | 
CC(CC1CCCCC1)NC(=O)c1sccc1I (stereo not drawn) [Compound 28-1] |  | at least 70% |  | 
Cc1ccsc1C(=O)NC(C)CC1CCCCC1 (stereo not drawn) [Compound 29-1] |  | at least 70% |  | 
Cc1cc(C(=O)NC(C)CC2CCCCC2)c(C(F)(F)F)o1 (stereo not drawn) [Compound 30-1] | at least 70% | at least 70% | at least 70% | 
Cc1cc(C(=O)NC(C)CC2CCCCC2)c(C)o1 (stereo not drawn) [Compound 32-1] | at least 70% |  | at least 70% | 
